For two molecules, binding results are on record in publication PMC5458259.

By UniProt entry, the sequences of proteins in these tests, tags left out.
UniProt P49789: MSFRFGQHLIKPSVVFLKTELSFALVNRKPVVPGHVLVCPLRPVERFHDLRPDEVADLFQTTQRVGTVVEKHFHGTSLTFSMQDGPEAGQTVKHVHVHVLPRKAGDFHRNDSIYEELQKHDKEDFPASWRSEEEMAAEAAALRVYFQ

These are yes or no findings as the source states them, for the method shown. In cells and extracts the contact can be indirect. Some binding calls cover weakened binding; strength is not graded here.

In assay [1] the target is T1, 14-3-3τ protein (human (endogenous in H460)) (UniProt P27348).
T1 sequence: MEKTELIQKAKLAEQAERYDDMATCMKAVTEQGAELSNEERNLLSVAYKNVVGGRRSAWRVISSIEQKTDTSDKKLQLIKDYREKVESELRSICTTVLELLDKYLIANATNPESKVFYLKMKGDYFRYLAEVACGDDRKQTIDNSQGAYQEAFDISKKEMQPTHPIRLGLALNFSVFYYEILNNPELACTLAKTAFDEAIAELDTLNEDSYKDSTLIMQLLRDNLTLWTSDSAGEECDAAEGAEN
Description: co-IP; lysate (500 μg) of H460 cells transduced with Ad-Fhit, precleared with protein A-agarose; 3 μg anti-FLAG or anti-14-3-3τ antibody at 4°C overnight, protein A-agarose beads, five washes in lysis buffer, immunoblotting; both directions.

In assay [2] the target is FLAG-tagged Fhit protein (fragile histidine triad) (human) (UniProt P49789). The description is as above.

For the molecule “FLAG-tagged Fhit protein (fragile histidine triad) (from UniProt P49789 1-147)”, the binding result in assay [1] is given as “binds”.

B1: 14-3-3τ protein (protein, UniProt P27348 1-245)
chain: T1 sequence
Take B1: the binding entry in assay [2] is given as “binds”.
